# Screen size: about 400,000 compounds; about 13,000 (3.2%) were called active. The inconclusive results got no clear call from the source; some entries with a clear call stand among them for comparison. Calls come from the whole dose curve; as a rule, active = well fitted cell-killing curve with a large enough effect; inconclusive = small, poorly fitted or top-dose-only effect, or effect the other way; inactive = flat fitted curve, though single readings scatter. Potencies beside an inconclusive call are fits to weak or partial responses and may not hold up.
# Test: qHTS assay for MDR1-selective chemotherapeutics: Primary screen using the drug-selected MDR subline cells KB-V1; note: nearly all actives have a fitted effect of over 60% in size
# Settings: KB-V1 MDR cells viability, CellTiter-Glo, 72 h; activity change, negative = cytotoxicity: at 46.1 µM (top of the series)
# Method in brief: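 KB-V1 MDR subline cells in DMEM (phenol-red free, 10% FBS) exposed to compounds in qHTS concentration series for 72 h at 37 degrees C. Viability read by CellTiter-Glo luminescence; concentration-effect curves fitted after normalization and correction.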
# % is set by controls: 0 for no effect and ±100 for the full control effect; potency is the fitted concentration of half-maximal effect.
SMILES,Potency,"activity change, negative = cytotoxicity"
CCCCc1cc(=O)oc2cc(OCC(=O)N(CC)CC)ccc12,active: 7.31 µM,–
CC(C)(C)c1ccc(C(=O)NCC(=O)OCC(=O)Nc2ccccc2[N+](=O)[O-])cc1,"inconclusive: 3.66 µM [rising, full curve]",–
CC(C)CCNc1nc(N)c([N+](=O)[O-])c(NCC2CCCO2)n1 (configuration not stated),"inconclusive: 11.6 µM [cytotoxic, partial curve]",–
CN(CC(=O)Nc1ccccc1Br)C(=O)COc1cccc2c1OC(C)(C)C2,inactive,–
CSCCNC(=O)C1(C)CCN1C(=O)c1cc(C)n(C)n1 (configuration not stated),inactive,–
C/C(=N\OCC(=O)Nc1ccccc1Br)c1cccs1,inactive,–
CCN(CC)C(=O)c1cccc(-c2csc(C(C)(O)c3ccc(OC)cc3)n2)c1 (configuration not stated),"inconclusive: 23.1 µM [cytotoxic, partial curve, poor fit]",–
CC(=O)Nc1cccc(S(C)(=O)=O)c1,–,inconclusive: -1.3%
O=C(NC1CCN(Cc2ccccc2)CC1)c1ccc(Oc2cc(Cl)cc(Cl)c2)o1,"inconclusive: 14.6 µM [cytotoxic, partial curve]",–
CCNC(=O)C1(C)CCN1C(=O)CCc1cccc(Cl)c1 (configuration not stated),inactive,–
COc1ccc(NC(=O)c2ccc3ccccc3n2)cc1S(=O)(=O)Nc1ccccc1Cl,inactive,–
CN1C(C(=O)Nc2ccc(OC(F)(F)F)cc2)=CC(c2ccco2)=NS1(=O)=O,–,inconclusive: -12.2%
O=C(COC(=O)Cc1cccs1)Nc1ccc(F)c(F)c1F,"inconclusive: 18.4 µM [rising, partial curve, poor fit]",–
NC(=O)NN=C1c2cc(S(=O)(=O)N3CCOCC3)ccc2-c2ccc(S(=O)(=O)N3CCOCC3)cc21,inactive,–
COc1cc2c(cc1OC)C(C)N(C(=O)c1sccc1C)CC2 (configuration not stated),inactive,–
O=C(NC1CC2CCCC(C1)N2C(=S)Nc1ccccc1)C1CC1 (configuration not stated),"inconclusive: 20.6 µM [rising, single point]",–
COc1ccc(CNc2ncnc3cc(Cl)ccc23)cc1,active: 20.6 µM,–
CC1(C)C(c2ccccc2)=NC(c2ccc(Br)cc2)N1O (configuration not stated),inactive,–
c1ccc(-c2cc(-c3ccncc3)nc3ccc4ccccc4c23)cc1,"inconclusive: 16.4 µM [cytotoxic, partial curve]",–
Cc1ccc2cccc(NS(=O)(=O)c3ccccc3)c2n1,"inconclusive: 16.4 µM [cytotoxic, single point]",–
OC(c1ccccc1)c1nc(-c2cc3ccccc3o2)cs1 (configuration not stated),"inconclusive: 23.1 µM [cytotoxic, single point]",–
COc1cc(C#N)ccc1OCC(=O)Nc1ccc(C)c(S(=O)(=O)N2CCOCC2)c1,active: 8.2 µM,–

# Ordered by molecular weight (rising): some entries from above
SMILES,Potency,"activity change, negative = cytotoxicity"
CSCCNC(=O)C1(C)CCN1C(=O)c1cc(C)n(C)n1 (configuration not stated),inactive,–
O=C(NC1CC2CCCC(C1)N2C(=S)Nc1ccccc1)C1CC1 (configuration not stated),"inconclusive: 20.6 µM [rising, single point]",–
NC(=O)NN=C1c2cc(S(=O)(=O)N3CCOCC3)ccc2-c2ccc(S(=O)(=O)N3CCOCC3)cc21,inactive,–

# Reference: PubChem BioAssay AID1347076 (National Center for Advancing Translational Sciences (NCATS), 2019)
